This passage reports cell number change and AC50 results from PubChem BioAssay AID2685 (National Center for Advancing Translational Sciences (NCATS), 2010).

As a reminder, the AC50 is the midpoint of the concentration-response curve, whichever way the signal moves. A lower AC50 goes with activity at low concentration.

Some of the results follow. Shown are side measurements of this screen, not its main read-out; they come without a call. The list favours compounds with an active or inconclusive main result. The note in brackets gives the kind of curve behind each potency; many fits are weak.

The nature of the assay: qHTS Assay for Lipid Storage Modulators in Drosophila S3 Cells.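 For cell number change: cells counted by Cell Tracker Red CMTPX staining in the red channel.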 The conditions noted are these: BODIPY lipid droplet fluorescence, 18-24 h; for cell number change: measured here: cell count max response, cells fed with added oleic acid. In short, it runs like this: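 Drosophila S3 cells loaded with oleic acid (400 uM, as added) and compounds at several concentrations; lipid droplets imaged by 488-nm laser-scanning cytometry, 500–530 nm intensity and object ratio to cell channel. Percent activity normalized to 20 uM Triacsin C.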

Setting [1] is: measured here: lipid fluorescence (Fed channel) AC50, cells fed with added oleic acid.
Where [2] appears, read: measured here: cell number channel AC50, cells fed with added oleic acid.

For the molecule `CCOC(=O)C1CCN(C(=O)C2CCN(c3nnc(-n4cccc4)s3)CC2)CC1`, the cell number change was -0.659%. The AC50 under setting [1] was 29.1 µM [rising, single point].

With `C=C(C)CC1(NC(C)c2ccccc2)CCCCC1` (stereo not given), the cell number change was -62.8%. In addition, the AC50 under setting [2] is 20.6 µM [falling, partial curve].

With `O=C(Nc1nc(-c2ccco2)c(-c2ccco2)s1)c1ccc(F)cc1F`, the cell number change was -31.7%. For the same molecule, under setting [2], the AC50 was 7.31 µM [falling, partial curve, poor fit].

As for `CCOC(=O)CC1CCCCN1Cc1nc(-c2ccc(F)c(OC)c2)oc1C` (stereo not given), the cell number change was -17%. Besides, under setting [1], the AC50 is 0.517 µM [falling, full curve].

Turning to `CCCC(=O)c1ccc(N2CCN(S(=O)(=O)c3ccccc3)CC2)c(F)c1`, the cell number change is 61.7%. The AC50 under setting [2] was 4.61 µM [rising, full curve]. Moreover, the AC50 under setting [1] was 2.31 µM [rising, full curve, poor fit].

As for `COc1cc(/C=C/C(=O)OCc2c(C)noc2C)ccc1OC(F)F`, the cell number change was -49.7%. In addition, the AC50 under setting [1] is 20.6 µM [falling, single point].

Turning to `O=C(CS(=O)(=O)c1ccccc1)Nc1nccs1`, the cell number change was 31.9%. Further, the AC50 under setting [2] was 0.164 µM [rising, full curve, poor fit].

Regarding `CCOC(=O)C(C)c1c(C)[nH]c(=S)[nH]c1=O` (stereo not given), the cell number change turned out to be 2.87%. In addition, the AC50 under setting [1] is 2.31 µM [falling, partial curve, poor fit].

For `Cc1occc1-c1nnc(SCC(=O)NC2CC2)n1C(C)C`, the cell number change is -23.8%. For the same molecule, the AC50 under setting [1] was 29.1 µM [rising, single point].

`COc1ccc(/C=C(\C#N)C(=O)NCC2CCCO2)cc1OC` (stereo not given): the cell number change was -0.153%. Under setting [2], the AC50 was 3.66 µM [rising, single point]. Further, the AC50 under setting [1] is 6.51 µM [rising, single point].

In the case of `Cc1ccccc1CN(C)CC(=O)Nc1cccc(S(=O)(=O)N(C)c2ccccc2)c1`, the cell number change stood at 17.7%. Besides, under setting [1], the AC50 was 1.03 µM [rising, partial curve].

Regarding `CC(OC(=O)c1ccc2ncsc2c1)C(=O)N(C)C1CCCCC1` (stereo not given), the cell number change is -27.8%. For the same molecule, the AC50 under setting [1] is 2.59 µM [falling, partial curve, poor fit].

Regarding `Cc1ccc(S(=O)(=O)CCC(=O)N(CCCN2CCOCC2)c2nc3ccccc3s2)cc1`, the cell number change is -27.5%.

`O=C(CN1CCN(c2ccc(Cl)cc2)CC1)NCc1cccs1`: the cell number change is -1.34%. The AC50 under setting [1] was 0.058 µM [falling, full curve, poor fit].

Turning to `Cc1cccc(NC(=O)N2CCCCCC2)c1C`, the cell number change stood at 4.34%. Also, the AC50 under setting [1] was 0.146 µM [falling, full curve, poor fit].

As to `O=c1[nH]c(CSc2nnc(-c3ccccc3)n2-c2ccccc2)nc2ccccc12`, the AC50 under setting [2] was 3.66 µM [rising, partial curve, poor fit].

In the case of `CCCCCCNC(=O)c1cccc(-c2ccc(C)c3ccccc23)n1`, the cell number change was determined as 25.4%. The AC50 under setting [2] was 4.11 µM [rising, full curve, poor fit]. The AC50 under setting [1] is 3.26 µM [rising, partial curve, poor fit].

For the molecule `CC(C)(C)c1ccc(S(=O)(=O)CCc2ccccn2)cc1`, the cell number change was -14%. Besides, the AC50 under setting [1] was 7.31 µM [falling, partial curve, poor fit].

Regarding `O=C1CC(c2ccccc2)CN1C(=O)c1cncc(Br)c1` (stereo not given), the cell number change was 12.2%. The AC50 under setting [1] was 6.51 µM [falling, single point].

Take `O=C(NN=C1CCCC1)c1cc(-c2ccc(F)cc2)nc2ccccc12`: the cell number change is -22.7%. Under setting [1], the AC50 is 0.206 µM [falling, full curve, poor fit].

As to `CCCCOc1ccc(-c2cc(C(=O)NNC(=S)NCC)c3ccccc3n2)cc1`, the cell number change was -37.5%. In addition, the AC50 under setting [2] is 2.06 µM [falling, full curve].

As for `COc1ccc2nc(SCC(=O)NCc3ccc4c(c3)OCO4)[nH]c2c1`, the cell number change amounted to 12.7%. Further, under setting [1], the AC50 is 0.92 µM [rising, partial curve].

`COCCN(CCOC)S(=O)(=O)c1ccc(C(=O)Nc2sc3c(c2C(N)=O)CCCCC3)cc1`: the cell number change is 3.62%.

With `O=C(COC(=O)C1=COCCO1)NC1CCCCCCC1`, the cell number change is -11%. Under setting [2], the AC50 was 0.0231 µM [falling, full curve, poor fit]. The AC50 under setting [1] is 1.16 µM [falling, single point].

On to `O=C(CSc1nnc(CNC(=O)c2ccco2)o1)c1ccccc1`, for which the cell number change amounted to 84.6%. The AC50 under setting [2] is 20.6 µM [rising, single point]. Moreover, the AC50 under setting [1] was 23.1 µM [rising, single point].

As for `O=C(c1ccncc1)N1c2ccccc2Sc2ccccc21`, the cell number change is -24%. Besides, the AC50 under setting [1] was 29.1 µM [falling, single point].

For the molecule `Cc1cc(C)nc(-n2nc(C)c3c(C(F)F)cc(C)nc32)n1`, the cell number change turned out to be 5.02%.

In the case of `Cc1cc(C(F)(F)F)nn1Cc1n[nH]c(=S)n1-c1ccc(F)cc1`, the cell number change was -4.32%. Under setting [1], the AC50 was 0.651 µM [falling, full curve, poor fit].

In the case of `CC1(C)SC2c3ccccc3C(=O)N2[C@@H]1C(=O)NCCCN1CCOCC1` (stereo not given in full), the cell number change turned out to be 5.9%. Further, the AC50 under setting [1] was 0.0651 µM [falling, full curve, poor fit].

In the case of `Cc1cc(C)cc(N(CCC(=O)Nc2nnc(C3CC3)s2)S(=O)(=O)c2ccc(Cl)cc2)c1`, the cell number change is -9.86%. The AC50 under setting [1] is 2.91 µM [falling, partial curve, poor fit].

As for `CCSCCOC(=O)C1=C(C)NC(=O)NC1c1cc(OC)ccc1OC` (stereo not given), the cell number change amounted to 17.8%. The AC50 under setting [1] was 10.3 µM [rising, partial curve].

For the molecule `COc1cc2c(cc1OC)CN(C(=S)Nc1ccccc1)CC2`, the cell number change was -30.8%. Besides, under setting [2], the AC50 is 6.51 µM [falling, partial curve].

As to `CCCOc1ccc(C(=O)Nc2ccc(N3CCN(C(=O)c4ccco4)CC3)cc2)cc1`, the cell number change was -3.52%. The AC50 under setting [1] is 2.06 µM [rising, partial curve].

Take `CC(C)CCC1(C)NC(=O)N(CC(=O)c2ccc[nH]2)C1=O` (stereo not given): the cell number change is -85.9%. Also, the AC50 under setting [2] was 32.6 µM [falling, partial curve, poor fit].

Consider `CC(C)c1ccc(NC(=O)c2cc(S(=O)(=O)N3CCCCC3)c[nH]2)cc1`, for which the cell number change amounted to 23.7%. The AC50 under setting [2] is 0.00411 µM [rising, full curve, poor fit].

On to `Cc1cc(NC(=O)CSc2ncc(CO)n2Cc2ccc(F)cc2)no1`, for which the cell number change was found to be 94.7%. The AC50 under setting [2] is 16.4 µM [rising, partial curve].

Turning to `COc1cccc(NC=C2C(=O)OC(C)(C)OC2=O)c1`, the cell number change came to 1.19%. The AC50 under setting [1] is 0.651 µM [falling, single point].
